# Measurements: the supplement of paper PMC8728848
# The other results are listed elsewhere or left out.
# Columns and labels:
# Test in all cases: glycan array binding signal (z-score within array); higher = stronger binding
# Conditions in all cases: glycan notation: IUPAC condensed, linker removed
# Fuc(a1-2)Gal = target: Fuc(a1-2)Gal
# Method in brief: (§1)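 Negative Z-scores can be read as non-binding. The Z-score is calculated within each array and then averaged across arrays of one protein sequence at different concentrations or buffers and across linkers. Arrays, 3228 in all, were curated from the Consortium for Functional Glycomics database and kept only where the protein sequence was available.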
# Fuc(a1-2)Gal(b1-3)GalNAc = target: Fuc(a1-2)Gal(b1-3)GalNAc
# Method in brief: as §1
# [1] = target: Fuc(a1-2)Gal(b1-3)GalNAc(a1-3)[Fuc(a1-2)]Gal(b1-4)Glc
# Method in brief: as §1
# [2] = target: Fuc(a1-2)Gal(b1-3)GalNAc(a1-3)[Fuc(a1-2)]Gal(b1-4)GlcNAc
# Method in brief: as §1
# [3] = target: Fuc(a1-2)Gal(b1-3)GalNAc(b1-3)Gal
# Method in brief: as §1
# [4] = target: Fuc(a1-2)Gal(b1-3)GalNAc(b1-3)Gal(a1-4)Gal(b1-4)Glc
# Method in brief: as §1
# [5] = target: Fuc(a1-2)Gal(b1-3)GalNAc(b1-4)[Neu5Ac(a2-3)]Gal(b1-4)Glc
# Method in brief: as §1
# Fuc(a1-2)Gal(b1-3)GlcNAc = target: Fuc(a1-2)Gal(b1-3)GlcNAc
# Method in brief: as §1
# [6] = target: Fuc(a1-2)Gal(b1-3)GlcNAc(b1-2)Man(a1-3)[Fuc(a1-2)Gal(b1-3)GlcNAc(b1-2)Man(a1-6)]Man(b1-4)GlcNAc(b1-4)GlcNAc
# Method in brief: as §1
# [7] = target: Fuc(a1-2)Gal(b1-3)GlcNAc(b1-2)Man(a1-3)[Fuc(a1-2)Gal(b1-3)GlcNAc(b1-2)Man(a1-6)]Man(b1-4)GlcNAc(b1-4)[Fuc(a1-6)]GlcNAc
# Method in brief: as §1
# [8] = target: Fuc(a1-2)Gal(b1-3)GlcNAc(b1-3)Gal(b1-4)Glc
# Method in brief: as §1
# [9] = target: Fuc(a1-2)Gal(b1-3)GlcNAc(b1-3)GalNAc
# Method in brief: as §1
# [10] = target: Fuc(a1-2)Gal(b1-3)GlcNAc(b1-3)[Fuc(a1-2)Gal(b1-3)GlcNAc(b1-6)]GalNAc
# Method in brief: as §1
# [11] = target: Fuc(a1-2)Gal(b1-3)GlcNAc(b1-3)[Gal(b1-4)GlcNAc(b1-6)]Gal(b1-4)Glc
# Method in brief: as §1
# [12] = target: Fuc(a1-2)Gal(b1-3)GlcNAc(b1-3)[Neu5Ac(a2-6)Gal(b1-4)GlcNAc(b1-6)]Gal(b1-4)Glc
# Method in brief: as §1
# [13] = target: Fuc(a1-2)Gal(b1-3)GlcNAc6S
# Method in brief: as §1
# [14] = target: Fuc(a1-2)Gal(b1-3)[Fuc(a1-4)]GlcNAc
# Method in brief: as §1
# [15] = target: Fuc(a1-2)Gal(b1-3)[Fuc(a1-4)]GlcNAc(b1-2)Man(a1-3)[Fuc(a1-2)Gal(b1-3)[Fuc(a1-4)]GlcNAc(b1-2)Man(a1-3)]Man(b1-4)GlcNAc(b1-4)GlcNAc
# Method in brief: as §1
# [16] = target: Fuc(a1-2)Gal(b1-3)[Fuc(a1-4)]GlcNAc(b1-2)Man(a1-3)[Fuc(a1-2)Gal(b1-3)[Fuc(a1-4)]GlcNAc(b1-2)Man(a1-6)]Man(b1-4)GlcNAc(b1-4)[Fuc(a1-6)]GlcNAc(b1-4)[Fuc(a1-6)]GlcNAc
# Method in brief: as §1
# [17] = target: Fuc(a1-2)Gal(b1-3)[Fuc(a1-4)]GlcNAc(b1-3)[Fuc(a1-3)[Gal(b1-4)]GlcNAc(b1-6)]Gal(b1-4)Glc
# Method in brief: as §1
# [18] = target: Fuc(a1-2)Gal(b1-3)[Fuc(a1-4)]GlcNAc(b1-3)[Gal(b1-4)GlcNAc(b1-6)]Gal(b1-4)Glc
# Method in brief: as §1
# Fuc(a1-2)Gal(b1-4)Glc = target: Fuc(a1-2)Gal(b1-4)Glc
# Method in brief: as §1
# Fuc(a1-2)Gal(b1-4)Glc6S = target: Fuc(a1-2)Gal(b1-4)Glc6S
# Method in brief: as §1
# Fuc(a1-2)Gal(b1-4)GlcNAc = target: Fuc(a1-2)Gal(b1-4)GlcNAc
# Method in brief: as §1
# [19] = target: Fuc(a1-2)Gal(b1-4)GlcNAc(b1-2)Man
# Method in brief: as §1
# [20] = target: Fuc(a1-2)Gal(b1-4)GlcNAc(b1-2)Man(a1-3)[Fuc(a1-2)Gal(b1-4)GlcNAc(b1-2)Man(a1-6)]Man(b1-4)GlcNAc(b1-4)GlcNAc
# Method in brief: as §1
# [21] = target: Fuc(a1-2)Gal(b1-4)GlcNAc(b1-2)Man(a1-3)[Fuc(a1-2)Gal(b1-4)GlcNAc(b1-2)Man(a1-6)]Man(b1-4)GlcNAc(b1-4)[Fuc(a1-6)]GlcNAc
# Method in brief: as §1
# [22] = target: Fuc(a1-2)Gal(b1-4)GlcNAc(b1-2)[Fuc(a1-2)Gal(b1-4)GlcNAc(b1-4)]Man(a1-3)[Fuc(a1-2)Gal(b1-4)GlcNAc(b1-2)Man(a1-6)]Man(b1-4)GlcNAc(b1-4)GlcNAc
# Method in brief: as §1
# [23] = target: Fuc(a1-2)Gal(b1-4)GlcNAc(b1-3)Gal(b1-4)GlcNAc
# Method in brief: as §1
# [24] = target: Fuc(a1-2)Gal(b1-4)GlcNAc(b1-3)Gal(b1-4)GlcNAc(b1-2)Man(a1-3)[Fuc(a1-2)Gal(b1-4)GlcNAc(b1-3)Gal(b1-4)GlcNAc(b1-2)Man(a1-6)]Man(b1-4)GlcNAc(b1-4)GlcNAc
# Method in brief: as §1
# [25] = target: Fuc(a1-2)Gal(b1-4)GlcNAc(b1-3)Gal(b1-4)GlcNAc(b1-3)Gal(b1-4)GlcNAc
# Method in brief: as §1
# [26] = target: Fuc(a1-2)Gal(b1-4)GlcNAc(b1-3)GalNAc
# Method in brief: as §1
# [27] = target: Fuc(a1-2)Gal(b1-4)GlcNAc(b1-3)[Fuc(a1-2)Gal(b1-4)GlcNAc(b1-6)]GalNAc
# Method in brief: as §1
# [28] = target: Fuc(a1-2)Gal(b1-4)GlcNAc(b1-3)[Fuc(a1-3)[Gal(b1-4)]GlcNAc(b1-6)]Gal(b1-4)Glc
# Method in brief: as §1
# [29] = target: Fuc(a1-2)Gal(b1-4)GlcNAc(b1-6)GalNAc
# Method in brief: as §1
# [30] = target: Fuc(a1-2)Gal(b1-4)GlcNAc6S
# Method in brief: as §1
# [31] = target: Fuc(a1-2)Gal(b1-4)[Fuc(a1-3)]GlcNAc
# Method in brief: as §1
# [32] = target: Fuc(a1-2)Gal(b1-4)[Fuc(a1-3)]GlcNAc(b1-2)Man(a1-3)[Fuc(a1-2)Gal(b1-4)[Fuc(a1-3)]GlcNAc(b1-2)Man(a1-6)]Man(b1-4)GlcNAc(b1-4)[Fuc(a1-6)]GlcNAc
# Method in brief: as §1
# [33] = target: Fuc(a1-2)Gal(b1-4)[Fuc(a1-3)]GlcNAc(b1-2)[Fuc(a1-2)Gal(b1-4)[Fuc(a1-3)]GlcNAc(b1-4)]Man(a1-3)[Fuc(a1-2)Gal(b1-4)[Fuc(a1-3)]GlcNAc(b1-2)Man(a1-6)]Man(b1-4)GlcNAc(b1-4)GlcNAc
# Method in brief: as §1
# [34] = target: Fuc(a1-2)Gal(b1-4)[Fuc(a1-3)]GlcNAc(b1-3)Gal(b1-4)[Fuc(a1-3)]GlcNAc
# Method in brief: as §1
# [35] = target: Fuc(a1-2)Gal(b1-4)[Fuc(a1-3)]GlcNAc(b1-3)Gal(b1-4)[Fuc(a1-3)]GlcNAc(b1-3)Gal(b1-4)[Fuc(a1-3)]GlcNAc
# Method in brief: as §1
# [36] = target: Fuc(a1-2)Gal(b1-4)[Fuc(a1-3)]GlcNAc(b1-3)GalNAc
# Method in brief: as §1
# [37] = target: Fuc(a1-2)Gal(b1-4)[Fuc(a1-3)]GlcNAc(b1-3)[Neu5Ac(a2-6)Gal(b1-4)GlcNAc(b1-6)]Gal(b1-4)Glc
# Method in brief: as §1
# [38] = target: Fuc(a1-2)Gal3S(b1-4)GlcNAc
# Method in brief: as §1
# [39] = target: Fuc(a1-2)Gal6S(b1-3)GlcNAc
# Method in brief: as §1
binder,measurement,setting,value
LF82 (Escherichia coli) (protein) ADWGPCRTASGDPFIFVTSFTKNIQNPTDNVTGQTYPDFYQWALGDKYSGVCECPSPNPTEARPTLYKTESTLAAGHNSTYFKITNNLEVSTRVYIANVGNVQVPFINKSNSQPGRECDQPTFGWTTGSKGQLSLYIAKPFVGEQNIPQTIIVSVFGTKKENVYSSVPISQVLLSGKVTVTQGCELAAGTSLDIDFGEYQAHDFKGRTGQPPQNVQKIQKELTFNCTNISDGVHIYLSLEGTPNAAYPSAISLGNADVGAVIEDGKGNILKPNDSNSLLEMNPGSLYEYVKRKVTTTITAYPVSTTGKLPAAGDYSGVATMHVELDGGGGGGGGGGATTDLGAKGTLKFSLKISQGHHHHHH,glycan array binding signal (z-score),Fuc(a1-2)Gal,-0.31
same,glycan array binding signal (z-score),Fuc(a1-2)Gal(b1-3)GalNAc,0.017
same,glycan array binding signal (z-score),[1],-0.382
same,glycan array binding signal (z-score),[2],-1.45
same,glycan array binding signal (z-score),[3],1.34
same,glycan array binding signal (z-score),[4],-0.902
same,glycan array binding signal (z-score),[5],3.03
same,glycan array binding signal (z-score),Fuc(a1-2)Gal(b1-3)GlcNAc,-0.323
same,glycan array binding signal (z-score),[6],1.37
same,glycan array binding signal (z-score),[7],-0.308
same,glycan array binding signal (z-score),[8],-0.758
same,glycan array binding signal (z-score),[9],-0.512
same,glycan array binding signal (z-score),[10],1.56
same,glycan array binding signal (z-score),[11],-1.77
same,glycan array binding signal (z-score),[12],-0.6
same,glycan array binding signal (z-score),[13],2.87
same,glycan array binding signal (z-score),[14],0.56
same,glycan array binding signal (z-score),[15],-0.701
same,glycan array binding signal (z-score),[16],-0.012
same,glycan array binding signal (z-score),[17],0.018
same,glycan array binding signal (z-score),[18],0.103
same,glycan array binding signal (z-score),Fuc(a1-2)Gal(b1-4)Glc,0.034
same,glycan array binding signal (z-score),Fuc(a1-2)Gal(b1-4)Glc6S,0.084
same,glycan array binding signal (z-score),Fuc(a1-2)Gal(b1-4)GlcNAc,0.558
same,glycan array binding signal (z-score),[19],0.247
same,glycan array binding signal (z-score),[20],-0.511
same,glycan array binding signal (z-score),[21],0.081
same,glycan array binding signal (z-score),[22],0.092
same,glycan array binding signal (z-score),[23],-0.593
same,glycan array binding signal (z-score),[24],0.375
same,glycan array binding signal (z-score),[25],-0.19
same,glycan array binding signal (z-score),[26],1.85
same,glycan array binding signal (z-score),[27],-0.393
same,glycan array binding signal (z-score),[28],-1.07
same,glycan array binding signal (z-score),[29],-0.243
same,glycan array binding signal (z-score),[30],-0.741
same,glycan array binding signal (z-score),[31],-0.733
same,glycan array binding signal (z-score),[32],1.22
same,glycan array binding signal (z-score),[33],0.094
same,glycan array binding signal (z-score),[34],-1.73
same,glycan array binding signal (z-score),[35],0.016
same,glycan array binding signal (z-score),[36],-0.268
same,glycan array binding signal (z-score),[37],-0.342
same,glycan array binding signal (z-score),[38],-0.467
same,glycan array binding signal (z-score),[39],0.113

# A portion taken from the entries so far, as a working copy:
binder,measurement,setting,value
LF82 (Escherichia coli) (protein) ADWGPCRTASGDPFIFVTSFTKNIQNPTDNVTGQTYPDFYQWALGDKYSGVCECPSPNPTEARPTLYKTESTLAAGHNSTYFKITNNLEVSTRVYIANVGNVQVPFINKSNSQPGRECDQPTFGWTTGSKGQLSLYIAKPFVGEQNIPQTIIVSVFGTKKENVYSSVPISQVLLSGKVTVTQGCELAAGTSLDIDFGEYQAHDFKGRTGQPPQNVQKIQKELTFNCTNISDGVHIYLSLEGTPNAAYPSAISLGNADVGAVIEDGKGNILKPNDSNSLLEMNPGSLYEYVKRKVTTTITAYPVSTTGKLPAAGDYSGVATMHVELDGGGGGGGGGGATTDLGAKGTLKFSLKISQGHHHHHH,glycan array binding signal (z-score),[25],-0.19
same,glycan array binding signal (z-score),[26],1.85
same,glycan array binding signal (z-score),[27],-0.393
same,glycan array binding signal (z-score),[28],-1.07
